In the supplement of paper PMC7666118:
Some of the results follow.

The chains behind the UniProt entries cited, without tags or fusion partners. Where a name states a change or a piece, a line headed by the entry shows the natural chain unless it says otherwise.
UniProt O15439: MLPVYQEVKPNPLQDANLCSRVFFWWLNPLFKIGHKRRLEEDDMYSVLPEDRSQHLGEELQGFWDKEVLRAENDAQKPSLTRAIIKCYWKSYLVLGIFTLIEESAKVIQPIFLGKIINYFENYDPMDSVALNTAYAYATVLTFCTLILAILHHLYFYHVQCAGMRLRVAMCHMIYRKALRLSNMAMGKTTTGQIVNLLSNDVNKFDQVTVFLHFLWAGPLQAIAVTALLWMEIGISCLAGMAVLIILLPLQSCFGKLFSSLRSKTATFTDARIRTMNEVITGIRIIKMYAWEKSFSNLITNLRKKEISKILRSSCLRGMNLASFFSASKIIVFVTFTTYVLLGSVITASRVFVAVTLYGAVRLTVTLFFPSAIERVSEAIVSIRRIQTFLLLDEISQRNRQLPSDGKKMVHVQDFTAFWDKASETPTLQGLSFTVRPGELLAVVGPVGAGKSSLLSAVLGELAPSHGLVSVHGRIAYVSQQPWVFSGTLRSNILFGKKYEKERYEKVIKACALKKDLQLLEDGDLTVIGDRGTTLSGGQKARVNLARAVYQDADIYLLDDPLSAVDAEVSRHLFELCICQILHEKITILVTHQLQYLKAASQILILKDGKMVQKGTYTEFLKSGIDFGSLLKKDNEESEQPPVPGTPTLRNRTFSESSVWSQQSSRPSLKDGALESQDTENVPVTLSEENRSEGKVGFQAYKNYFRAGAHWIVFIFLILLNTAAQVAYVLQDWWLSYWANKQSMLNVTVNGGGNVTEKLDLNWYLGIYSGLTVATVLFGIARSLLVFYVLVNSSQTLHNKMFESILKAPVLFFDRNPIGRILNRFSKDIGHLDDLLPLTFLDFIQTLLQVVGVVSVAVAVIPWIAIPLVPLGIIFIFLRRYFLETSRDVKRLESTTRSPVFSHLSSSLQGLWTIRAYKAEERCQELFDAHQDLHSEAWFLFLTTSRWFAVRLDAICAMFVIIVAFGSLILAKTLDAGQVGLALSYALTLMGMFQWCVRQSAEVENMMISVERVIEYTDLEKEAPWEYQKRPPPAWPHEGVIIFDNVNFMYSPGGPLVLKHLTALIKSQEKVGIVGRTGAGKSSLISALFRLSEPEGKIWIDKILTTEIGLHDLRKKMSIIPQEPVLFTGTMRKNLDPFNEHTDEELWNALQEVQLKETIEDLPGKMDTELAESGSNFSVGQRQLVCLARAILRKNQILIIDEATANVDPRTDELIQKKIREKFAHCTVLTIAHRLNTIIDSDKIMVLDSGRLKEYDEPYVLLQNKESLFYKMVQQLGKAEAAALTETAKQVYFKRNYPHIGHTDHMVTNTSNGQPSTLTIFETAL
UniProt O14678: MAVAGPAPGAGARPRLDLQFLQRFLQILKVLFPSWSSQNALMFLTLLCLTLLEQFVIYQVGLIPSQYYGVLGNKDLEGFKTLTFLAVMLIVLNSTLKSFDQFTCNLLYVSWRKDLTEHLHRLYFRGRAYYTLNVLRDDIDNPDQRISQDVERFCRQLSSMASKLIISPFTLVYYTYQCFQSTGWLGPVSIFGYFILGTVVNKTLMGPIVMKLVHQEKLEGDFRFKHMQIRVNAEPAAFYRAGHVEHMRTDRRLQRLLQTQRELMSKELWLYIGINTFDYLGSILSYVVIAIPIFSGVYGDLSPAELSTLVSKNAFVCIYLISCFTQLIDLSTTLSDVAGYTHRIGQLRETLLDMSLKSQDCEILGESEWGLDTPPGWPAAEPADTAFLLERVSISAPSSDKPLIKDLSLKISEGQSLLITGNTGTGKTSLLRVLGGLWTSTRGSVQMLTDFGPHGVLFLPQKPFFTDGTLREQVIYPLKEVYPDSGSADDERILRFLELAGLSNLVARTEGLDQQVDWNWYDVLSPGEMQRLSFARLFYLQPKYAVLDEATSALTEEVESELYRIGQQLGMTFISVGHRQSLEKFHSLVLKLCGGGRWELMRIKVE
UniProt Q9NUT2: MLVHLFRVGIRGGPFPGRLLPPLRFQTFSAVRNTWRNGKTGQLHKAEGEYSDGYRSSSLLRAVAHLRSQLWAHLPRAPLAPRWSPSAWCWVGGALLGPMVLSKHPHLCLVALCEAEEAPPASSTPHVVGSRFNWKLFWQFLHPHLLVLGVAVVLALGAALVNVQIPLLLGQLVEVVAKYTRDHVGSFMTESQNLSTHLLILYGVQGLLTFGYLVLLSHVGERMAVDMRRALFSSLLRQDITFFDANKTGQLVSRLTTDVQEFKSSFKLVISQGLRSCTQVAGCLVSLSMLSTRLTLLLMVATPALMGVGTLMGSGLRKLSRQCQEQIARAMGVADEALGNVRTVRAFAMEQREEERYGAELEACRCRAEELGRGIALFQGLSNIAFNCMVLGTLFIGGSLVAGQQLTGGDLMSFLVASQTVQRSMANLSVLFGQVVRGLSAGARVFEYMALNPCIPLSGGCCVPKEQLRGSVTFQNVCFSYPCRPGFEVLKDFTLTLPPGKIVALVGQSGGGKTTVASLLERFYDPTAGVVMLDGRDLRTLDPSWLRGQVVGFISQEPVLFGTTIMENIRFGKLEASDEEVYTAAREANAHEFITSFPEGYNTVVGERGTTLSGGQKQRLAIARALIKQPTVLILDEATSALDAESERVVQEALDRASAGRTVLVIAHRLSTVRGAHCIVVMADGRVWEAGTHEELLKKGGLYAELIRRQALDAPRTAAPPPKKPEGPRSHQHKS
UniProt Q2M2I8: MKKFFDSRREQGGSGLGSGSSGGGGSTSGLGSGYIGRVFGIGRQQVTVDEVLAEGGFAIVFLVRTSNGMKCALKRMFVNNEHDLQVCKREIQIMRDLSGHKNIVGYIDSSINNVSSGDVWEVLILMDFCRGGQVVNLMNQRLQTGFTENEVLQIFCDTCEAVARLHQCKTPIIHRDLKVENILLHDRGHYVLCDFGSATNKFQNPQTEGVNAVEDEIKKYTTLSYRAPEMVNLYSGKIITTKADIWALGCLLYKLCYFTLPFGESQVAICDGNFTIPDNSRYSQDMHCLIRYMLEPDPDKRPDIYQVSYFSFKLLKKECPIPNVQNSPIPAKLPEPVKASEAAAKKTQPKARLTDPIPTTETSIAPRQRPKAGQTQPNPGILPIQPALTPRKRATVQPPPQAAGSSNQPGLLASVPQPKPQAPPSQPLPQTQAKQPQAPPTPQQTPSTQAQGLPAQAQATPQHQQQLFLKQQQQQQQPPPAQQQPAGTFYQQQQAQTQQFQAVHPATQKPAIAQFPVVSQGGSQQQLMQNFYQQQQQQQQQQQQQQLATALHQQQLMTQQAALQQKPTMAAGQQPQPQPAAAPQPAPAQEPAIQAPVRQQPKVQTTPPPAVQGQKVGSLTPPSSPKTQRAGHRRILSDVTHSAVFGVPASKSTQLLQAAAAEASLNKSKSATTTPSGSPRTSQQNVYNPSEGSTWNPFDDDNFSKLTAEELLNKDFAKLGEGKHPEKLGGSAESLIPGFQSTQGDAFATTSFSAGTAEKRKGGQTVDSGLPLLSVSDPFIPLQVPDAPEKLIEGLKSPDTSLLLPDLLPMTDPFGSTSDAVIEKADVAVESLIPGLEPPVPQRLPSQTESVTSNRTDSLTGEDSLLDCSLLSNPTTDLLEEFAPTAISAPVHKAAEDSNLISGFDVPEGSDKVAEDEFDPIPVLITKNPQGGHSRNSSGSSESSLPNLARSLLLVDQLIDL
UniProt O75027: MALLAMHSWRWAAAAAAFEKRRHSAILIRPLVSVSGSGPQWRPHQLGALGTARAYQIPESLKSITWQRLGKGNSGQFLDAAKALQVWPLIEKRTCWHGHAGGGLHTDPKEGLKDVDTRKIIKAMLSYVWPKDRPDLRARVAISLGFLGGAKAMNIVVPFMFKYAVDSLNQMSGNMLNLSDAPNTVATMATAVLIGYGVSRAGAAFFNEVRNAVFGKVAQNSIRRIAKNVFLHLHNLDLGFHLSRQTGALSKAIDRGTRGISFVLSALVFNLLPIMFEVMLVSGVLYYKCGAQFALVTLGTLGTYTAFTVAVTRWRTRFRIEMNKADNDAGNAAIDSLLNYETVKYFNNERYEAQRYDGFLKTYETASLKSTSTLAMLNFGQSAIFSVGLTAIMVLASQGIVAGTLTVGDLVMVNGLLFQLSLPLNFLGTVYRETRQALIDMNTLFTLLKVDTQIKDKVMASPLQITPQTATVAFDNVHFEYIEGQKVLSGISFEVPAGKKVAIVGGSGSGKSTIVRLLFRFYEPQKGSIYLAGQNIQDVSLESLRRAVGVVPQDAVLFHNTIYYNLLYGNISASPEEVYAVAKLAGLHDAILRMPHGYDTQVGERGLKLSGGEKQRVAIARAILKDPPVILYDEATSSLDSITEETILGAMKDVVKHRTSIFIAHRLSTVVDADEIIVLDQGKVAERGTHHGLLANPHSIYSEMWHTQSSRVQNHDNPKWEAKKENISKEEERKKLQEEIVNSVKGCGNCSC
UniProt P09110: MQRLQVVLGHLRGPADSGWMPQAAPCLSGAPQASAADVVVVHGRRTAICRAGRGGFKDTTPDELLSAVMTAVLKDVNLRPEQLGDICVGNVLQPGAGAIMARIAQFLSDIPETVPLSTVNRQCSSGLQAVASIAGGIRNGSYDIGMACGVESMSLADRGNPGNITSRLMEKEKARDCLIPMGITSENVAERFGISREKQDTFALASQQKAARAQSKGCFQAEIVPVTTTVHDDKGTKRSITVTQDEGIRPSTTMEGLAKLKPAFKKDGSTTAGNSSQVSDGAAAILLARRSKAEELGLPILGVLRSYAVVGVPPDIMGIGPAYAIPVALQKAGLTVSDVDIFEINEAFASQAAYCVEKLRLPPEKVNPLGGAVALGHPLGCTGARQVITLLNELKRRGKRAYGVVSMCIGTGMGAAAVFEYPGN
UniProt P28288: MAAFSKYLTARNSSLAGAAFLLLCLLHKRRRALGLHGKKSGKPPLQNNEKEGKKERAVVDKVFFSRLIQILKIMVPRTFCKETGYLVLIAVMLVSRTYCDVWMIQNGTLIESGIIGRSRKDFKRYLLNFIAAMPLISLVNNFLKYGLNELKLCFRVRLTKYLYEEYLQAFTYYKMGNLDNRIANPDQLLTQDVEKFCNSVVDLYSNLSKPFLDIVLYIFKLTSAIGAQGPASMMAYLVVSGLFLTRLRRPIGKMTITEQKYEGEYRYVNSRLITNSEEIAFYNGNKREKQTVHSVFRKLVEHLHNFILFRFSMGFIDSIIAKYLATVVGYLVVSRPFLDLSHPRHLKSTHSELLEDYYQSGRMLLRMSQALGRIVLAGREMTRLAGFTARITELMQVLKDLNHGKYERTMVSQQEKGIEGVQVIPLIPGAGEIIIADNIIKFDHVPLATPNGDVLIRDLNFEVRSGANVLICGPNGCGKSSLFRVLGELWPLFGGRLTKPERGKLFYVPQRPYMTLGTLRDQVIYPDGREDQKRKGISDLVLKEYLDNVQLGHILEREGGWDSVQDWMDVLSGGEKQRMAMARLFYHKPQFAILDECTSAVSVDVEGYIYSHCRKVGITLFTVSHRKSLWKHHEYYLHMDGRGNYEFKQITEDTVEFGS
UniProt A8MTT3: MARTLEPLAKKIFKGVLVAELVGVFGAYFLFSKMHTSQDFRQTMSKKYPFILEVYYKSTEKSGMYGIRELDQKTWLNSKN
UniProt Q9NUJ1: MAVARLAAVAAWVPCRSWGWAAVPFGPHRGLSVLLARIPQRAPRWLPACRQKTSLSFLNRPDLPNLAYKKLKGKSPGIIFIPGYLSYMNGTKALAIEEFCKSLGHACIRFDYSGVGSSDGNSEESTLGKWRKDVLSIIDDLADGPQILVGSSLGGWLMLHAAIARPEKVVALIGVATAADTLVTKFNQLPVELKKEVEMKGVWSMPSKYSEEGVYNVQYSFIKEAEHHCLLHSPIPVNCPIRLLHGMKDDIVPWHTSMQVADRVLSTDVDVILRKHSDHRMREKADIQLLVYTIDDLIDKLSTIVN
UniProt Q86V21: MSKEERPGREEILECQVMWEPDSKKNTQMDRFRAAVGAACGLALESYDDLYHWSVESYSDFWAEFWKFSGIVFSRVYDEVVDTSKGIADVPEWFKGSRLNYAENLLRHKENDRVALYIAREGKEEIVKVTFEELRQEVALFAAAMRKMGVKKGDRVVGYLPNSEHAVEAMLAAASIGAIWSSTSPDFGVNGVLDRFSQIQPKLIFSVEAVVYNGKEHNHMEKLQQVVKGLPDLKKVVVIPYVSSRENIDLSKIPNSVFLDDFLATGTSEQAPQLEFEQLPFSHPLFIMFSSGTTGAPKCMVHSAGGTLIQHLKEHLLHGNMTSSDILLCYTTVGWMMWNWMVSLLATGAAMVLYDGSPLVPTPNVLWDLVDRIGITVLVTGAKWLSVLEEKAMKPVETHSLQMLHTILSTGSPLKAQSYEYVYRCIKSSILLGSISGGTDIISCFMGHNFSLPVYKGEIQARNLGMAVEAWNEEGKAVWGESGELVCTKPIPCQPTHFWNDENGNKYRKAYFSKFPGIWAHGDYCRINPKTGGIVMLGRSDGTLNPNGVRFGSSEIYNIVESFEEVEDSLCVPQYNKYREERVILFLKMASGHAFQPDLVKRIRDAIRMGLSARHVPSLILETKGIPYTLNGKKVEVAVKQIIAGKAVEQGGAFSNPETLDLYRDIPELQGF

compound: COc1ccc(Cn2ccc3ccc(C(=O)NO)cc32)cc1; assay: dose-dependent thermal stabilisation call (2D-TPP, DLPTP, 10% FDR) (binary (1 = stabilised)); higher = stabilised by the compound; details: system: HL-60 intact cells; concentration range 0.04-10 µM

Row | Target | dose-dependent thermal stabilisation call
1 | ACADVL (UniProt P49748) | inactive: 0
2 | ABI1 (UniProt Q8IZP0) | inactive: 0
3 | ABLIM1 (UniProt O14639) | inactive: 0
4 | ABHD12 (UniProt Q8N2K0) | inactive: 0
5 | AARS (UniProt P49588) | inactive: 0
6 | ABCC4 (UniProt O15439) | inactive: 0
7 | ACAD10 (UniProt Q6JQN1) | inactive: 0
8 | ABCF2 (UniProt Q9UG63) | inactive: 0
9 | ABR (UniProt Q12979) | inactive: 0
10 | ABCD4 (UniProt O14678) | inactive: 0
11 | ABCB8 (UniProt Q9NUT2) | inactive: 0
12 | ACAD8 (UniProt Q9UKU7) | inactive: 0
13 | AARS2 (UniProt Q5JTZ9) | inactive: 0
14 | ABCE1 (UniProt P61221) | inactive: 0
15 | ABHD6 (UniProt Q9BV23) | inactive: 0
16 | ACADM (UniProt P11310) | inactive: 0
17 | A2LD1 (UniProt Q9BVM4) | inactive: 0
18 | ACAP1 (UniProt Q15027) | inactive: 0

Row | Target | dose-dependent thermal stabilisation call
19 | ABCF3 (UniProt Q9NUQ8) | inactive: 0
20 | ACAD9 (UniProt Q9H845) | inactive: 0
21 | AARSD1 (UniProt Q9BTE6) | inactive: 0
22 | 49 KDA PROTEIN. | inactive: 0
23 | AAK1 (UniProt Q2M2I8) | inactive: 0
24 | ABCB7 (UniProt O75027) | inactive: 0
25 | AAAS (UniProt Q9NRG9) | inactive: 0
26 | ABL2 (UniProt P42684) | inactive: 0
27 | AAMP (UniProt Q13685) | active: 1
28 | ABCA2 (UniProt Q9BZC7) | inactive: 0
29 | ABCD1 (UniProt P33897) | inactive: 0
30 | ACAA1 (UniProt P09110) | inactive: 0
31 | ACAD11 (UniProt Q709F0) | inactive: 0
32 | ABCD3 (UniProt P28288) | inactive: 0
33 | ABHD14B (UniProt Q96IU4) | inactive: 0
34 | CEBPZOS HUMAN (UniProt A8MTT3) | inactive: 0
35 | ABHD10 (UniProt Q9NUJ1) | inactive: 0
36 | AACS (UniProt Q86V21) | inactive: 0

Some of the entries above in another layout:
Row	Target	dose-dependent thermal stabilisation call
31	ACAD11 (UniProt Q709F0)	inactive: 0
32	ABCD3 (UniProt P28288)	inactive: 0
